Results from US20030004317A1 (GlaxoSmithKline, published 2003).

Tests used:
[1] = biological target: human αvβ5 receptor protein purified from human placenta (human); assay: Specificity row, summary of the ELISAs
[2] = biological target: human αvβ3 receptor protein purified from human placenta (human); assay: Specificity row, summary of the ELISAs
[3] = biological target: human αvβ5 receptor protein purified from human placenta (human); assay: solid phase ELISA on purified human placenta receptor
[4] = biological target: human αvβ3 receptor protein purified from human placenta (human); assay: as above

Measured: binding

B1: murine monoclonal antibody B9 (antibody, mouse IgG1, V domains shown)
VH: QVQLQQSGAELMKPGASVKISCKATGYTFSSYWIEWVKQRPGHGLEWIGEILPRSGNTNYNEKFKGKATFTAETSSNTAYMQLSSLTPEDSAVYYCSSRGVRGSMDYWGQGTSVTVSS
VL: DIQMTQTTSSLSASLGDRVTITCRSSQDISNFLNWYQQKPDGTVKLLIYYTSTLHSGVPSRFSGSGSGTDYSLTISNLEQEDIATYFCQQGNTLPWTFGGGTNLEIKR
notes: also called mAb B9; Murine B9
binds: all assays above

Results are given in words; binding and its absence hold for the method and conditions named. Binding can be weak; no strength is given.
